The other results are listed elsewhere or left out. Most values lie at the level of the controls, where differences are scatter.

Protein sequences, listed by entry. Tags and fused reporters are not part of them. Lines headed by an entry give the natural chain unless they say otherwise; changes in a name come on top.
UniProt P08754, whole entry: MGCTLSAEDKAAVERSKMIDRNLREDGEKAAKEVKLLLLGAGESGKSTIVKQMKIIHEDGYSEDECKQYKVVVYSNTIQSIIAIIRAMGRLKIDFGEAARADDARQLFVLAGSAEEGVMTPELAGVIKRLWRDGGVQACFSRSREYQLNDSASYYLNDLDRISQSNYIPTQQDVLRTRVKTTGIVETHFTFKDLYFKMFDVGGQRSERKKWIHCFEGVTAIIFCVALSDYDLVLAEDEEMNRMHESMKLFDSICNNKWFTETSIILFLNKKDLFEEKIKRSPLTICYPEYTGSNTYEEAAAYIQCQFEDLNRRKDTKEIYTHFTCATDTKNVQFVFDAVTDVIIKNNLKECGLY
UniProt P08574: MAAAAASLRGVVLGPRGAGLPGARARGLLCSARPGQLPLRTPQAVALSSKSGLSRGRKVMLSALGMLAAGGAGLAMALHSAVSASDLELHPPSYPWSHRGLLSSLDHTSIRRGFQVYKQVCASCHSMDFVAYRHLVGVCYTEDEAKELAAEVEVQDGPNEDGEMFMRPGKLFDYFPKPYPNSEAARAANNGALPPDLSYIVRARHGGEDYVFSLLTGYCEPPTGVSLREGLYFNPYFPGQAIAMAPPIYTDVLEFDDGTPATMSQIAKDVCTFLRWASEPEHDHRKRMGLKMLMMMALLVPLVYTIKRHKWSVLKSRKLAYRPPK
UniProt P07205: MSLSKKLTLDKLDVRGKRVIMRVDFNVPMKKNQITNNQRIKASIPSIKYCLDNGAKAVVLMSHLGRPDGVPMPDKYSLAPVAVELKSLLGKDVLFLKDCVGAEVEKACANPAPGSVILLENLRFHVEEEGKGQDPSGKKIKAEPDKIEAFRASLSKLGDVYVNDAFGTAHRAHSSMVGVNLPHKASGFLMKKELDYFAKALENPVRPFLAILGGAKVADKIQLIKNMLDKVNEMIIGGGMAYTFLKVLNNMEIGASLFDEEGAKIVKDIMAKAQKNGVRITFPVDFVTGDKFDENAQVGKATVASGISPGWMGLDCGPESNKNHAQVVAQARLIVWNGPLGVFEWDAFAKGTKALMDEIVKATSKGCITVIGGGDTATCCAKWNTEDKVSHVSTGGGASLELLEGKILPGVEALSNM
UniProt P12956: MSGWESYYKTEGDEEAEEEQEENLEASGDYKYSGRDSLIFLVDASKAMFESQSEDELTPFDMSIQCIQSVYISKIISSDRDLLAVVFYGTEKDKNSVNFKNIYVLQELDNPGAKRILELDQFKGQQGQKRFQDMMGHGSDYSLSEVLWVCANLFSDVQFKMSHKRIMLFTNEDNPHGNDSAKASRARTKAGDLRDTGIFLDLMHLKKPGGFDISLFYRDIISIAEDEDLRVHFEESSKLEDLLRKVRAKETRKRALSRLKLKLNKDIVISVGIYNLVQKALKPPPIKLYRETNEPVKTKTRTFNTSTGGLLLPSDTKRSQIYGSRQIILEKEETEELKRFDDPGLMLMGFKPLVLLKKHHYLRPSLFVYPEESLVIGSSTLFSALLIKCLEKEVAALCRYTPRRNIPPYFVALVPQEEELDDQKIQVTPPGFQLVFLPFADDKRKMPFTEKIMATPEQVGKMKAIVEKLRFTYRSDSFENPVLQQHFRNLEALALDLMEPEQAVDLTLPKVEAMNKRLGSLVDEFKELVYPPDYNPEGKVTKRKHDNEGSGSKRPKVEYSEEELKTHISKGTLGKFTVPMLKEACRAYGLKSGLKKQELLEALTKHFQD
UniProt P08048: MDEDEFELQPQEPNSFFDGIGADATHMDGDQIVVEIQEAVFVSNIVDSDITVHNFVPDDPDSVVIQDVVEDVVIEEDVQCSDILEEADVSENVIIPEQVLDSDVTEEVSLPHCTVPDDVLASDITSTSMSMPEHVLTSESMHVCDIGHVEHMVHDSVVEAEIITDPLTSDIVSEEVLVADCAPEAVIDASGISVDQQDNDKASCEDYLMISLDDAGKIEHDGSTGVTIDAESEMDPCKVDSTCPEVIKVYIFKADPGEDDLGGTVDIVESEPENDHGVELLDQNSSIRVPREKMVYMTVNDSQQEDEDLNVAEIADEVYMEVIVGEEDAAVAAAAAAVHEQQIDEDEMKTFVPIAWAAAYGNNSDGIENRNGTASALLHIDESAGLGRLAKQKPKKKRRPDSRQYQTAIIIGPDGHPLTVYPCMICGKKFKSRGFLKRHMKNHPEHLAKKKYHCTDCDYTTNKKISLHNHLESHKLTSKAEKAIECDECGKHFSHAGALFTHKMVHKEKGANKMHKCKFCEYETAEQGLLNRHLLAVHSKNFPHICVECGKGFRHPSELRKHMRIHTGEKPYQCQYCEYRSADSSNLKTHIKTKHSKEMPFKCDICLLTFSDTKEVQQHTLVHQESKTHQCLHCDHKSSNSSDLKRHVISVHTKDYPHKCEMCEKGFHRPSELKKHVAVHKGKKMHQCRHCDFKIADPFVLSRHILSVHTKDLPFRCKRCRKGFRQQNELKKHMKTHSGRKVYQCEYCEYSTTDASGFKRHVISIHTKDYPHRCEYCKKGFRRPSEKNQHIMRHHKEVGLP
UniProt P01127, whole entry: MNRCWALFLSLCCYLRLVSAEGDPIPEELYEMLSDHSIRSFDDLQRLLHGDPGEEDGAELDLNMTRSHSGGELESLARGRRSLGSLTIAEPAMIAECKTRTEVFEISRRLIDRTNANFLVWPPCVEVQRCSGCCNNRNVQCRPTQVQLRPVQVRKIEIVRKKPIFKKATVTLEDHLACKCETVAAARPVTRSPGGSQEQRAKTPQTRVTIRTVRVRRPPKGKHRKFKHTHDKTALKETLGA
UniProt P11172: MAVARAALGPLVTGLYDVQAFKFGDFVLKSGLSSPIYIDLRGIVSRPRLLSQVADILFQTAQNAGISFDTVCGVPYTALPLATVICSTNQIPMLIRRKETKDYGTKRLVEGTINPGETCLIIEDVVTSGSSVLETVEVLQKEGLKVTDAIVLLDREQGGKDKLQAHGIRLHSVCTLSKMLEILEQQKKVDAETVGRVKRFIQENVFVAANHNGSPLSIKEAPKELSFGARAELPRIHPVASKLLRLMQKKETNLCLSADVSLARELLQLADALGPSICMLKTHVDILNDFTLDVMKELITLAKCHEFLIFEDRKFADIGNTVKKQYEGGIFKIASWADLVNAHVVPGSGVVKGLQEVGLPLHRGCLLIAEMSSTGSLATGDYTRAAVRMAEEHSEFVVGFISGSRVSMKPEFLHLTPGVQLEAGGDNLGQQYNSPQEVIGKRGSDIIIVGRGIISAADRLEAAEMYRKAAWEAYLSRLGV
UniProt P07910: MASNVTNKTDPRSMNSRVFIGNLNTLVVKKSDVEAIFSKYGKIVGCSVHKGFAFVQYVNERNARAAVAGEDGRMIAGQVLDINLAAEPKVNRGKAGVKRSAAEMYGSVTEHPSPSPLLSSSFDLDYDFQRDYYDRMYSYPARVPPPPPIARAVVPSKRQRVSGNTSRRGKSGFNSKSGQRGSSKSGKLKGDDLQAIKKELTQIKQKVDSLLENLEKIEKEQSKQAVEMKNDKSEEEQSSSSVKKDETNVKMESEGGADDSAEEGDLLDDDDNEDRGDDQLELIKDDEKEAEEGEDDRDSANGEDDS
UniProt P07919: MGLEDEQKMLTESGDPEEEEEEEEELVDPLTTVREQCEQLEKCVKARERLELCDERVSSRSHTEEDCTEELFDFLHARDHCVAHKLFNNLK
UniProt P10635, whole entry: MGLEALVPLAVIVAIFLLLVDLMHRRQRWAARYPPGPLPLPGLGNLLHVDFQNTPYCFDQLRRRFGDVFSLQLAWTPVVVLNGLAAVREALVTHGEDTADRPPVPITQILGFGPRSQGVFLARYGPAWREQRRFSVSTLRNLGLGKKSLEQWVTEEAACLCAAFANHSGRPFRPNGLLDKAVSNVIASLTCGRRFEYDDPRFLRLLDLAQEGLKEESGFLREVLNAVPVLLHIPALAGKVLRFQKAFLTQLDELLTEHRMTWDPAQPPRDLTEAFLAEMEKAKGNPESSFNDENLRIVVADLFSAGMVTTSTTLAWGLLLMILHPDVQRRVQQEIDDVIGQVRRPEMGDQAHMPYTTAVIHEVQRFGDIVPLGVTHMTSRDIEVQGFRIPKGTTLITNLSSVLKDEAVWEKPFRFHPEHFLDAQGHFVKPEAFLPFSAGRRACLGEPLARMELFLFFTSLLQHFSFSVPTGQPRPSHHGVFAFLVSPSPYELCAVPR
UniProt P04792, whole entry: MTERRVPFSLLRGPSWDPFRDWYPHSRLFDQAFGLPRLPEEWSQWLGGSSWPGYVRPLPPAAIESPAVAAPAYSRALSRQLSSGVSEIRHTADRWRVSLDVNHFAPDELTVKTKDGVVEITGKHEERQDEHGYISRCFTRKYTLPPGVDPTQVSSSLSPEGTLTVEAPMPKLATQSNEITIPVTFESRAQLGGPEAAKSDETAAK

Compound in this assay: Cc1nc(Nc2ncc(C(=O)Nc3c(C)cccc3Cl)s2)cc(N2CCN(CCO)CC2)n1 [dasatinib]
The experiment in a line: log2 fold change of tryptic peptide abundance, ligand vs vehicle (limited proteolysis) (log2 ratio); higher = more trypsin-susceptible (destabilized). The conditions noted are these: ligand concentration: 5 uM; sample: K562 cleared lysate.
“GNAI3 (peptide sequence: EIYTHFTCATDTK, peptide start residue: 318) (UniProt P08754)”: the log2 fold change was -0.297.

As to “CYC1 (peptide sequence: GLLSSLDHTSIR, peptide start residue: 100) (UniProt P08574)”, the log2 fold change worked out at 0.00144.

As to “PGK2 (peptide sequence: VSHVSTGGGASLELLEGK, peptide start residue: 389) (UniProt P07205)”, the log2 fold change amounted to 0.933.

In the case of “XRCC6 (peptide sequence: KMPFTEKIMATPEQVGK, peptide start residue: 445) (UniProt P12956)”, the log2 fold change worked out at 0.92.

Regarding “UniProt P08048 (peptide sequence: SSNSSDLKR, peptide start residue: 642)”, the log2 fold change was found to be 0.442.

Turning to “UniProt P01127 (peptide sequence: KFKHTHDK, peptide start residue: 225)”, the log2 fold change came out at 0.0862.

As to “UMPS (peptide sequence: EQGGKDKLQAHGIR, peptide start residue: 156) (UniProt P11172)”, the log2 fold change is -0.281.

With “HNRNPC (peptide sequence: LKGDDLQAIKK, peptide start residue: 188) (UniProt P07910)”, the log2 fold change worked out at 0.441.

As to “UQCRH (peptide sequence: LELCDER, peptide start residue: 50) (UniProt P07919)”, the log2 fold change is 0.0311.

In the case of “CYP2D6 (peptide sequence: PFRPNGLLDK, peptide start residue: 171) (UniProt P10635)”, the log2 fold change was -0.127.

“HSPB1 (peptide sequence: LFDQAFGLPR, peptide start residue: 28) (UniProt P04792)”: the log2 fold change is -2.4.

The values are drawn from the supplement of paper PMC12819154, “High-throughput peptide-centric local stability assay extends protein–ligand identification to membrane proteins, tissues and bacteria” (Nature Structural & Molecular Biology, 2025).
